This is an account of results in paper PMC6445148.

Sequences of proteins named here, by UniProt entry; tags and fusion partners are left off.
UniProt Q8R4B8: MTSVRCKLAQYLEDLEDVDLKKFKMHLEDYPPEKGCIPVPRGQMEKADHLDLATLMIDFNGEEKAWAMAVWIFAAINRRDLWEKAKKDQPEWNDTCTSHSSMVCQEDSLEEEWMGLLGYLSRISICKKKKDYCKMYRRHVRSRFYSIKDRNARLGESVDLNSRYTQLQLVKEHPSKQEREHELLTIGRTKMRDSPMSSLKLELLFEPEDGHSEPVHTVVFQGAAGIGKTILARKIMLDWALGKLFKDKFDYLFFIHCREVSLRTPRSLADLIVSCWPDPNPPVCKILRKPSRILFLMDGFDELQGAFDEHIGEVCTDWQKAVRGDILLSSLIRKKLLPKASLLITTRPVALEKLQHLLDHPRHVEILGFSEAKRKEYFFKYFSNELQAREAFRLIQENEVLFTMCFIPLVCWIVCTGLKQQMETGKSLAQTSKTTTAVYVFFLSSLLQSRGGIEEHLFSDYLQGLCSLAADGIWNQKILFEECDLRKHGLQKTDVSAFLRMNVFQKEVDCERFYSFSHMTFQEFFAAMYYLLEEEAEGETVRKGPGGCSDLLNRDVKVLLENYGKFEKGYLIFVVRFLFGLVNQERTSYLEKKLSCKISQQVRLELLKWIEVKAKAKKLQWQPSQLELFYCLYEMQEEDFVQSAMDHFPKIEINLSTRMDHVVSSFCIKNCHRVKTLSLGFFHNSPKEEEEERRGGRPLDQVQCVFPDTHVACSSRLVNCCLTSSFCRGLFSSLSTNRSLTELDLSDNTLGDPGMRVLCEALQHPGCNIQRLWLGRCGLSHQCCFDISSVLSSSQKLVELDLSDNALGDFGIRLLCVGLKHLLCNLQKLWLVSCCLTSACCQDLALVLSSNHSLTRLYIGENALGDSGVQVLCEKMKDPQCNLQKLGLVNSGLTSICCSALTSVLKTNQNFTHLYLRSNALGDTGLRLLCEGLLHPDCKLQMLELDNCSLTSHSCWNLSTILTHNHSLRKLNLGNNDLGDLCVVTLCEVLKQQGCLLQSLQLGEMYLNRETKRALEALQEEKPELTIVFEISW
UniProt Q3UP24: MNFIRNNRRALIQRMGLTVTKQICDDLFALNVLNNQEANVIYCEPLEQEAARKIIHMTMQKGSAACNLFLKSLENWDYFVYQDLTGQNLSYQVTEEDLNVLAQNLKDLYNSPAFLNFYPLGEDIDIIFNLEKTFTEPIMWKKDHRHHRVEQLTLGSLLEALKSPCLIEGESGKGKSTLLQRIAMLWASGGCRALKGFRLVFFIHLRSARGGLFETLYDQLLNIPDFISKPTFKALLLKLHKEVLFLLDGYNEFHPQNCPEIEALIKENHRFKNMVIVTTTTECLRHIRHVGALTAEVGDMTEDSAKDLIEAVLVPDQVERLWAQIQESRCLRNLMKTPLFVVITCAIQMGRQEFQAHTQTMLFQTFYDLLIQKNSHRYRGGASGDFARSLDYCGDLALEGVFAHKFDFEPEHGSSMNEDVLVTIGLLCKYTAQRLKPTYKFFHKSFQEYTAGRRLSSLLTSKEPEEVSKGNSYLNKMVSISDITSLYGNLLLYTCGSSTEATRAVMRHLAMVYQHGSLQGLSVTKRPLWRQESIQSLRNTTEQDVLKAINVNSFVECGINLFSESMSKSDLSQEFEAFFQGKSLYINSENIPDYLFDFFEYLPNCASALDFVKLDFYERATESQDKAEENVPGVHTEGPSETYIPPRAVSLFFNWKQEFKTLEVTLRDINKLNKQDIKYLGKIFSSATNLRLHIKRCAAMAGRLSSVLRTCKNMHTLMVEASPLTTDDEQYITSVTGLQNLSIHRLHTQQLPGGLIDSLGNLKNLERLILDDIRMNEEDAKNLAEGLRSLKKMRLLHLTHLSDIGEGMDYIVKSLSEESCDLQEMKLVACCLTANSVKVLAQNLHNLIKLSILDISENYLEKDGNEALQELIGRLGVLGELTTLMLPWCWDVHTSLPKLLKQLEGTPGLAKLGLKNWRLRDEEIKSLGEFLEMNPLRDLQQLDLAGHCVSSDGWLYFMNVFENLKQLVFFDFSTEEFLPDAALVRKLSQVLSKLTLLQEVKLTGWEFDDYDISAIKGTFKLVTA

Assay [1] has as its target T1, apoptosis-associated speck-like protein containing CARD (ASC) (mouse (endogenous in iBMDMs)) (UniProt Q9EPB4).
T1 sequence: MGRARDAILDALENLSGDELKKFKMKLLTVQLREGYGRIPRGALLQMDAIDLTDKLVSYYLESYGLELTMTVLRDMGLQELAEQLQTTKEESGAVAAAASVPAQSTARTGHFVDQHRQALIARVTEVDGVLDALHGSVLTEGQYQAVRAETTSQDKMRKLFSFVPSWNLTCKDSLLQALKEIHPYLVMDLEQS
Description: co-IP; lysates of control or Neat1_1-expressing iBMDMs primed with LPS and stimulated with flagellin or poly(dA:dT); immunoprecipitated with ASC antibody or normal rabbit IgG; western blotting. On the technique in general: A western blot detects proteins with antibodies after separation by electrophoresis.

The target of assay [2] is NLRP3 (mouse (endogenous in iBMDMs)) (UniProt Q8R4B8). Kind of assay: co-IP; endogenous proteins in lysates of control or Neat1_1-overexpressing iBMDMs; precipitating antibody not told in the text shown (Supplementary Fig. 1m); protein A/G magnetic beads, western blotting.
The target in assay [3] is T2, Nono (mouse (endogenous in iBMDMs)) (UniProt Q99K48).
T2 sequence: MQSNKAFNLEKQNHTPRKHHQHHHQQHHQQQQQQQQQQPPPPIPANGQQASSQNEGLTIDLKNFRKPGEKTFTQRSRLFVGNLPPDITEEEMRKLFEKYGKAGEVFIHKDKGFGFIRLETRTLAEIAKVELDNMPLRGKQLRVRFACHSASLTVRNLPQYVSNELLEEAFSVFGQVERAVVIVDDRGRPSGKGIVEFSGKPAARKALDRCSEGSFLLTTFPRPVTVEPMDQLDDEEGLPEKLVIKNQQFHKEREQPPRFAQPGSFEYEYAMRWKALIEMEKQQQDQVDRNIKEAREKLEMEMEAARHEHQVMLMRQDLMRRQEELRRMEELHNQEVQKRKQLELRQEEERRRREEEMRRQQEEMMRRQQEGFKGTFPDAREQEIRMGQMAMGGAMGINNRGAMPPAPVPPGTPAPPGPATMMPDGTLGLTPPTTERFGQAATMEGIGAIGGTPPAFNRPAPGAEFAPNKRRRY
Description: co-IP; endogenous paraspeckle proteins in lysates of untreated, LPS-primed, flagellin-, poly(dA:dT)- or 2DG-activated iBMDMs; western blotting.

No constants are given. Whether binding was seen depends on the method and setting. In cells and extracts the contact can be indirect. Some results given as binding are weak or reduced against the parent protein; the word gives no strength.

For NLRC4 (from UniProt Q3UP24 1-1024), the binding result in assay [1] is listed as “binds”.

B1: pro-caspase-1 (protein, UniProt P29452 1-402)
chain: MADKILRAKRKQFINSVSIGTINGLLDELLEKRVLNQEEMDKIKLANITAMDKARDLCDHVSKKGPQASQIFITYICNEDCYLAGILELQSAPSAETFVATEDSKGGHPSSSETKEEQNKEDGTFPGLTGTLKFCPLEKAQKLWKENPSEIYPIMNTTTRTRLALIICNTEFQHLSPRVGAQVDLREMKLLLEDLGYTVKVKENLTALEMVKEVKEFAACPEHKTSDSTFLVFMSHGIQEGICGTTYSNEVSDILKVDTIFQMMNTLKCPSLKDKPKVIIIQACRGEKQGVVLLKDSVRDSEEDFLTDAIFEDDGIKKAHIEKDFIAFCSSTPDNVSWRHPVRGSLFIESLIKHMKEYAWSCDLEDIFRKVRFSFEQPEFRLQMPTADRVTLTKRFYLFPGH
Turning to B1, the binding entry in assay [2] and in assay [1] was “binds” in each case.

B2: Pspc1 (protein, UniProt Q8R326 1-523)
chain: MMLRGNLKQVRIEKNPARLRALESAAGESEPVAAAAMALTLAGEQAPPPAPSEEHPDEELGFTIDIKSFLKPGEKTYTQRCRLFVGNLPTDITEEDFKRLFERYGEPSEVFINRDRGFGFIRLESRTLAEIAKAELDGTILKSRPLRIRFATHGAALTVKNLSPVVSNELLEQAFSQFGPVEKAVVVVDDRGRATGKGFVEFAAKPPARKALERCGDGAFLLTTTPRPVIVEPMEQFDDEDGLPEKLMQKTQQYHKEREQPPRFAQPGTFEFEYASRWKALDEMEKQQREQVDRNIREAKEKLEAEMEAARHEHQLMLMRQDLMRRQEELRRLEELRNQELQKRKQIQLRHEEEHRRREEEMIRHREQEELRRQQEGGFKPNYMENREQEMRMGDMGPRGAINMGDAFSPAPAGTQGPPPMMGMNMNNRGTIPGPPMGPGPAMGPEGAANMGTPMIPDNGAVHNDRFPQGPPSQMGSPMGNRTGSETPQAPMSGVGPVSGGPGGFGRGSQGGNFEGPNKRRRY
With B2, the binding result in assay [3] is given as “binds”.

B3: AIM2 (protein, UniProt Q91VJ1 1-354)
chain: MESEYREMLLLTGLDHITEEELKRFKYFALTEFQIARSTLDVADRTELADHLIQSAGAASAVTKAINIFQKLNYMHIANALEEKKKEAERKLMTNTKKRGTQKVENRSQAENCSAASATRSDNDFKEQAATEVCPQAKPQKKQMVAEQEAIREDLQKDPLVVTVLKAINPFECETQEGRQEIFHATVATETDFFFVKVLNAQFKDKFIPKRTIKISNYLWHSNFMEVTSSSVVVDVESNHEVPNNVVKRARETPRISKLKIQPCGTIVNGLFKVQKITEEKDRVLYGIHDKTGTMEVLVLGNPSKTKCEEGDKIRLTFFEVSKNGVKIQLKSGPCSFFKVIKAAKPKTDMKSVE
As to B3, the binding entry in assay [1] is on record as “binds”.

B4: Sfpq (protein, UniProt Q8VIJ6 1-699)
chain: MSRDRFRSRGGGGGGFHRRGGGGGRGGLHDFRSPPPGMGLNQNRGPMGPGPGGPKPPLPPPPPHQQQQQPPPQQPPPQQPPPHQQPPPHQPPHQQPPPPPQESKPVVPQGPGSAPGVSSAPPPAVSAPPANPPTTGAPPGPGPTPTPPPAVPSTAPGPPPPSTPSSGVSTTPPQTGGPPPPPAGGAGPGPKPGPGPGGPKGGKMPGGPKPGGGPGMGAPGGHPKPPHRGGGEPRGGRQHHAPYHQQHHQGPPPGGPGPRTEEKISDSEGFKANLSLLRRPGEKTYTQRCRLFVGNLPADITEDEFKRLFAKYGEPGEVFINKGKGFGFIKLESRALAEIAKAELDDTPMRGRQLRVRFATHAAALSVRNLSPYVSNELLEEAFSQFGPIERAVVIVDDRGRSTGKGIVEFASKPAARKAFERCSEGVFLLTTTPRPVIVEPLEQLDDEDGLPEKLAQKNPMYQKERETPPRFAQHGTFEYEYSQRWKSLDEMEKQQREQVEKNMKDAKDKLESEMEDAYHEHQANLLRQDLMRRQEELRRMEELHSQEMQKRKEMQLRQEEERRRREEEMMIRQREMEEQMRRQREESYSRMGYMDPRERDMRMGGGGTMNMGDPYGSGGQKFPPLGGGGGIGYEANPGVPPATMSGSMMGSDMRTERFGQGGAGPVGGQGPRGMGPGTPAGYGRGREEYEGPNKKPRF
With B4, the binding result in assay [3] is given as “binds”.
